Measurements: the supplement of paper PMC3047530
The list shows a part of the results. Most values come without repeats; read them as rough.

What follows are molecules tested on Geomyces destructans (assay: growth inhibition relative to DMSO control; higher = stronger growth inhibition). Conditions: 10 µM; 15 °C; incubation time 10 days.

How did the growth inhibition turn out when `CC1(C)NC(=O)N(c2ccc([N+](=O)[O-])c(C(F)(F)F)c2)C1=O` was run?
The growth inhibition was -32.6%.

`CCCCCCc1ccc(O)cc1O` was tested. Which growth inhibition did it give?
The growth inhibition was 22.2%.

How did the growth inhibition turn out when `CC(C)=CCC[C@](C)(O)C1CC=C(C)CC1` (stereo partly specified) was run?
The growth inhibition was -5.57%.

Which growth inhibition does the source give for `CCOC(=O)C(=O)C1(C(=O)OCC)Oc2cc(OC)cc(OC)c2C(=O)C1c1ccccc1` (stereo unspecified) here?
Its growth inhibition is -14%.

Which growth inhibition does the source give for `CC(C)NCC(O)COc1cccc2ccccc12` (stereo unspecified) here?
The growth inhibition was -5.77%.

For `COC(=O)C[C@H]1C(C)(C)C(=O)[C@@H]2CC3=C4CC(=O)O[C@@H](c5ccoc5)[C@]4(C)CC[C@@H]3[C@@]1(C)C2=O`, which growth inhibition is on record?
Its growth inhibition is -18.7%.

Which growth inhibition does the source give for `COc1ccc(C(=O)CC(=O)O)c2c1C=CC(C)(C)O2` here?
The growth inhibition was -1.43%.

For `COc1ccc2cc1Oc1ccc(cc1)C[C@H]1c3cc(c(OC)cc3CCN1C)Oc1c(OC)c(OC)cc3c1[C@H](C2)N(C)CC3`, which growth inhibition is on record?
The growth inhibition was -3.42%.

How did the growth inhibition turn out when `Sc1nc2ccccc2s1` was run?
The growth inhibition was -24.4%.

For `O=C1CCc2cc(OCCCCc3nnnn3C3CCCCC3)ccc2N1`, which growth inhibition is on record?
The growth inhibition was -21.4%.

With `CCS(=O)(=O)CCn1c([N+](=O)[O-])cnc1C` as the molecule, how does the growth inhibition read?
Its growth inhibition is -38%.

How did the growth inhibition turn out when `COc1cc(OC)c2c(c1)OC(c1ccccc1)CC2=O` (stereo unspecified) was run?
Its growth inhibition is -5.51%.

How did the growth inhibition turn out when `CCCCOc1cc(C(=O)NCCN(CC)CC)c2ccccc2n1` was run?
Its growth inhibition is -6.08%.

How did the growth inhibition turn out when `COc1ccc(CN(CCN(C)C)c2ccccn2)cc1` was run?
The growth inhibition was 5.69%.

With `CCCNC(C)C(=O)Nc1ccccc1C` (stereo unspecified) as the molecule, how does the growth inhibition read?
Its growth inhibition is -10.4%.

`Nc1ncn([C@@H]2O[C@H](CO)[C@@H](O)[C@H]2O)c(=O)n1` was tested. Which growth inhibition did it give?
The growth inhibition was -3.31%.

How did the growth inhibition turn out when `CC(COc1ccccc1)N(CCCl)Cc1ccccc1` (stereo unspecified) was run?
Its growth inhibition is -6.23%.

Which growth inhibition does the source give for `C=C1c2cccc(O)c2C(=O)C2=C(O)[C@]3(O)C(=O)C(C(N)=O)=C(O)[C@@H](N(C)C)[C@@H]3[C@@H](O)[C@H]12` here?
Its growth inhibition is -17.3%.

`COc1cc2cc3c4cc(OC)c(OC)cc4cc[n+]3c(C)c2cc1OC` was tested. Which growth inhibition did it give?
Its growth inhibition is -6.41%.

Which growth inhibition does the source give for `C#CCCCCCCCCCCCC(=O)CC(O)COC(C)=O` (stereo unspecified) here?
The growth inhibition was -5.92%.

Which growth inhibition does the source give for `Cn1c(=O)c2nc[nH]c2n(C)c1=O` here?
Its growth inhibition is -18.7%.

With `CC(C)(C)NC[C@H](O)COc1nsnc1N1CCOCC1` as the molecule, how does the growth inhibition read?
The growth inhibition was -22.2%.

`C[C@]12CCC(=O)C=C1CC[C@@H]1[C@@H]2[C@@H](O)C[C@@]2(C)[C@H]1CC[C@]2(O)C(=O)COC(=O)CCC(=O)O` was tested. Which growth inhibition did it give?
The growth inhibition was -5.11%.

For `NC1(C(=O)O)CCCC1`, which growth inhibition is on record?
Its growth inhibition is -6.14%.

How did the growth inhibition turn out when `NCCCC[C@H](N[C@@H](CCc1ccccc1)C(=O)O)C(=O)N1CCC[C@H]1C(=O)O` was run?
Its growth inhibition is -6.22%.

For `O=C(Oc1cc(OC(=O)c2ccccc2)c2c(c1)O[C@H](c1ccc(OC(=O)c3ccccc3)c(OC(=O)c3ccccc3)c1)[C@@H](OC(=O)c1ccccc1)C2)c1ccccc1`, which growth inhibition is on record?
The growth inhibition was 1.65%.

`COc1ccc(-c2coc3c(OC)c(O)ccc3c2=O)cc1` was tested. Which growth inhibition did it give?
Its growth inhibition is -16.3%.

For `O=C(Cc1cccs1)N[C@@H]1C(=O)N2C(C(=O)[O-])=C(C[n+]3ccccc3)CS[C@H]12`, which growth inhibition is on record?
The growth inhibition was -3.47%.

How did the growth inhibition turn out when `CO/N=C(\C(=O)N[C@@H]1C(=O)N2C(C(=O)O)=C(CSc3nc(=O)c(O)nn3C)CS[C@H]12)c1csc(N)n1` was run?
Its growth inhibition is -7.99%.

`CCOC(=O)OC(C)OC(=O)[C@@H]1N2C(=O)[C@@H](NC(=O)[C@H](N)c3ccccc3)[C@H]2SC1(C)C` (stereo partly specified) was tested. Which growth inhibition did it give?
The growth inhibition was -3.47%.

How did the growth inhibition turn out when `CCOC(=O)[C@H](CCc1ccccc1)N[C@H]1CCc2ccccc2N(CC(=O)O)C1=O` was run?
Its growth inhibition is -25.7%.

`CC(=O)N[C@@H](CC(C)C)C(=O)O` was tested. Which growth inhibition did it give?
The growth inhibition was 3.45%.

For `Nc1nc(=O)c2nc(CNc3ccc(C(=O)N[C@@H](CCC(=O)O)C(=O)O)cc3)cnc2[nH]1`, which growth inhibition is on record?
Its growth inhibition is -4.31%.

How did the growth inhibition turn out when `CC[C@H]1OC(=O)[C@H](C)[C@@H](O[C@H]2C[C@@](C)(OC)[C@@H](O)[C@H](C)O2)[C@H](C)[C@@H](O[C@@H]2O[C@H](C)C[C@H](N(C)C)[C@H]2O)[C@](C)(O)C[C@@H](C)/C(=N\OCOCCOC)[C@H](C)[C@@H](O)[C@]1(C)O` was run?
The growth inhibition was 0.462%.

Which growth inhibition does the source give for `CC(C)(O)[C@@H]1Cc2cc3ccc(=O)oc3cc2O1` here?
The growth inhibition was -2.26%.

For `COc1c2ccoc2nc2c(OC)c(OCC(O)C(C)(C)O)ccc12` (stereo unspecified), which growth inhibition is on record?
Its growth inhibition is -32.1%.

Which growth inhibition does the source give for `C#CCCCCCCCCCCCC(O)CC(O)CO` (stereo unspecified) here?
The growth inhibition was -21.3%.

With `COc1cc2ccc(=O)oc2c(OC)c1OC` as the molecule, how does the growth inhibition read?
The growth inhibition was -11.5%.

For `COc1ccc(-c2cc(=O)c3c(O)cc(O)cc3o2)cc1O`, which growth inhibition is on record?
The growth inhibition was -28.6%.

With `CC(=O)OCC(COC(C)=O)OC(C)=O` as the molecule, how does the growth inhibition read?
Its growth inhibition is -14.5%.

For `O=C(Cn1ccnc1[N+](=O)[O-])NCCO`, which growth inhibition is on record?
The growth inhibition was -33.5%.

How did the growth inhibition turn out when `CCOc1cccc(C(=O)c2ccc(O)c(O)c2O)c1` was run?
Its growth inhibition is 16.3%.

`NC(=O)N1c2ccccc2C=Cc2ccccc21` was tested. Which growth inhibition did it give?
Its growth inhibition is -9.35%.

Which growth inhibition does the source give for `COc1ccc2c(c1)OCc1c-2oc2cc(OC)ccc12` here?
Its growth inhibition is -3.77%.

How did the growth inhibition turn out when `COc1ccc([C@H]2COc3c(ccc(O)c3OC)C2)c(OC)c1O` was run?
The growth inhibition was -11.3%.

With `CN(C)CCN(Cc1cccs1)c1ccccn1` as the molecule, how does the growth inhibition read?
The growth inhibition was -10.4%.

With `O=C(O)c1cc2ccccc2[nH]1` as the molecule, how does the growth inhibition read?
Its growth inhibition is 5.41%.

How did the growth inhibition turn out when `O=c1c(O)cccc2cc(O)c(O)c(O)c12` was run?
The growth inhibition was 52.6%.

`Cc1ccc(S(=O)(=O)NC(=O)NN2CC3CCCC3C2)cc1` (stereo unspecified) was tested. Which growth inhibition did it give?
The growth inhibition was -4.04%.

For `COc1ccc(-c2cc(=O)c3c(O)cc(O)cc3o2)cc1`, which growth inhibition is on record?
Its growth inhibition is -7.53%.

For `CC(=O)N[C@@H](CC(=O)N[C@@H](CCC(=O)O)C(=O)O)C(=O)O`, which growth inhibition is on record?
The growth inhibition was -6.82%.

`CC(=O)Oc1ccc2c(c1C(C)C)CCC1C(C)(C)CCC[C@]21C` (stereo partly specified) was tested. Which growth inhibition did it give?
Its growth inhibition is 2.83%.

Which growth inhibition does the source give for `CCn1cc(C(=O)O)c(=O)c2cnc(N3CCNCC3)nc21` here?
The growth inhibition was -2.84%.

Which growth inhibition does the source give for `COc1cc2nc(N3CCN(C(=O)c4ccco4)CC3)nc(N)c2cc1OC` here?
The growth inhibition was -8.86%.

How did the growth inhibition turn out when `Oc1c(I)cc(I)c2cccnc12` was run?
Its growth inhibition is -1.75%.

Which growth inhibition does the source give for `CC1(C)C(=O)CC[C@@]2(C)C1C[C@@H](O)[C@@]1(C)C3=CC(=O)O[C@@H](c4ccoc4)[C@]3(C)CCC21` (stereo partly specified) here?
The growth inhibition was -17.7%.

How did the growth inhibition turn out when `CCN(CC)CCNC(=O)c1cc(S(C)(=O)=O)ccc1OC` was run?
Its growth inhibition is -0.324%.

How did the growth inhibition turn out when `O=C(CCCN1CC=C(n2c(=O)[nH]c3ccccc32)CC1)c1ccc(F)cc1` was run?
Its growth inhibition is -10.3%.

`CCCCCC(C)N` (stereo unspecified) was tested. Which growth inhibition did it give?
Its growth inhibition is -30.3%.

Which growth inhibition does the source give for `COc1cc2c(cc1OC)C1C(=O)c3c(OC)cc4c(c3OC1CO2)CCC(C)(C)O4` (stereo not drawn) [DIHYDRO-alpha-TOXICAROL METHYL ETHER] here?
Its growth inhibition is -15.3%.

How did the growth inhibition turn out when `COc1ccc2cc(CCC(C)=O)ccc2c1` was run?
Its growth inhibition is 1.37%.

For `O=C(O)CCC(=O)OC[C@@H](NC(=O)C(Cl)Cl)[C@H](O)c1ccc([N+](=O)[O-])cc1`, which growth inhibition is on record?
Its growth inhibition is -1.37%.

How did the growth inhibition turn out when `CCOc1ccc(C(=O)c2cc(O)c(OC)c(OC)c2O)cc1` was run?
Its growth inhibition is 1.65%.

With `CCn1cc(C(=O)O)c(=O)c2ccc(C)nc21` as the molecule, how does the growth inhibition read?
The growth inhibition was -6.89%.

With `COC(=O)[C@]1(C)CCC[C@]2(C)c3ccc(C(C)C)cc3C(=O)CC12` (stereo partly specified) as the molecule, how does the growth inhibition read?
The growth inhibition was -45.1%.

`C#CCN(C)Cc1ccccc1` was tested. Which growth inhibition did it give?
The growth inhibition was -26.2%.
